Results are given in words; binding and its absence hold for the method and conditions named. Binding seen in cells or lysates may run through a third protein. Some results given as binding are weak or reduced against the parent protein; the word gives no strength.
Experiments:
[1] = target: Integrin α5 (mouse (endogenous in C2C12)) (UniProt P11688); test: proximity ligation
[2] = target: T1, Integrin αv (mouse (endogenous in C2C12)) (UniProt P43406); test: proximity ligation
T1 sequence: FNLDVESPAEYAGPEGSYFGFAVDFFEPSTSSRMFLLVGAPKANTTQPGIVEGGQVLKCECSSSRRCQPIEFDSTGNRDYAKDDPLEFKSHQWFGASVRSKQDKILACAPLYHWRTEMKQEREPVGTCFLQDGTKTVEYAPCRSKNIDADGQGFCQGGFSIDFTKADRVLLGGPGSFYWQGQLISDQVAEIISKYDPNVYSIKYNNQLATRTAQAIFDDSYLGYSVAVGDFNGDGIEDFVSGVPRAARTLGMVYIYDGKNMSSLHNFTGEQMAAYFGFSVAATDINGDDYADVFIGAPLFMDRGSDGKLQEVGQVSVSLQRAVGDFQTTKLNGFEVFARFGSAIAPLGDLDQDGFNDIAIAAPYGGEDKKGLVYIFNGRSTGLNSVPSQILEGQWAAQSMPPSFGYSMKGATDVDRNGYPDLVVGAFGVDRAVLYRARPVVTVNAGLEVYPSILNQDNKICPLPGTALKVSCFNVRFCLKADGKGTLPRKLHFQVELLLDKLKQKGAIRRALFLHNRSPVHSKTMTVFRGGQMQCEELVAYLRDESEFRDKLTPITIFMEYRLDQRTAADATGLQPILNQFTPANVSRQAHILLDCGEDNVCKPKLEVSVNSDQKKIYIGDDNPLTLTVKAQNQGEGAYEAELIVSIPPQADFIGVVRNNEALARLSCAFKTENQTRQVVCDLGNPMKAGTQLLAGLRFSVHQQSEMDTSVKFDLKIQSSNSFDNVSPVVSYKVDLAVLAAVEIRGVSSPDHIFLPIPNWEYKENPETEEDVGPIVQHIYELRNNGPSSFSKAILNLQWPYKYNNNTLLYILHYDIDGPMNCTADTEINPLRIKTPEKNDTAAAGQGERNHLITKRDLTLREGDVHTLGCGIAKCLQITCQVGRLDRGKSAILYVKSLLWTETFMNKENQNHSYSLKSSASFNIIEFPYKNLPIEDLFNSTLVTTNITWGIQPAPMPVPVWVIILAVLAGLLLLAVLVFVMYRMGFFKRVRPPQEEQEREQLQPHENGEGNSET

The chains behind the UniProt entries cited, without tags or fusion partners. Residues count along the entry.
UniProt P11688, residues 45-1053: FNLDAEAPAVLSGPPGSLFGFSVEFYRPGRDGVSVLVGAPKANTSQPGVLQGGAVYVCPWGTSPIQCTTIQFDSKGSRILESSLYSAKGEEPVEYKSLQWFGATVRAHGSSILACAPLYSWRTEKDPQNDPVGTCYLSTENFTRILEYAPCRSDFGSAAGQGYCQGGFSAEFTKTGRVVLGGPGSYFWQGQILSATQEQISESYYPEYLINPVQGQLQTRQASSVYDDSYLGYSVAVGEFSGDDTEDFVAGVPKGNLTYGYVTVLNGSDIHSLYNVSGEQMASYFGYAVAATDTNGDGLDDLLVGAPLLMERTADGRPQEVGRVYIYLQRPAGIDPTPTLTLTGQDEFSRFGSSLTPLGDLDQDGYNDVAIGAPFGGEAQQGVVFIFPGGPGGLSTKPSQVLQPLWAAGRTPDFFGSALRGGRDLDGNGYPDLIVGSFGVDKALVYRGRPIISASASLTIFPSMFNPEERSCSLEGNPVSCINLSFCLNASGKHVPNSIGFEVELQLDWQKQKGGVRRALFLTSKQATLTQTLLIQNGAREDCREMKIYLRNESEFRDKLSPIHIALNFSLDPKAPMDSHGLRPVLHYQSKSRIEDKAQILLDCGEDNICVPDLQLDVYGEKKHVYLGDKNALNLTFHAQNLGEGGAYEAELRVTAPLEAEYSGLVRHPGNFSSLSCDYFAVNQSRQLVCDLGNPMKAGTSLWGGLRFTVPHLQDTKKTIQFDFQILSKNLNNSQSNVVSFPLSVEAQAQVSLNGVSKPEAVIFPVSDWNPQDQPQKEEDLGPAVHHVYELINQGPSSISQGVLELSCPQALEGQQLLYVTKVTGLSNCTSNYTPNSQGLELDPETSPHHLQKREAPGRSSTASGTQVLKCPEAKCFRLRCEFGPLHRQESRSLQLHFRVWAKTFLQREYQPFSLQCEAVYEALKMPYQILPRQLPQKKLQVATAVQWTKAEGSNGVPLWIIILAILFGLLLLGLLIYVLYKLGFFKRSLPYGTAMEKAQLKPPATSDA

B1: NaBC1 borate transporter (SLC4A11) (protein, UniProt A2AJN7 1-862)
chain: MSQNEHCQDSGEYFSAGTQGYFKNNMEDNLEVREDSLGDEVFDTVNSSIVSGESIRFFVNVNLEVQPSKSDLEAATGGCVLLHTSRKYLKLKNFEEEVRAHRDLDGFLAQASIILNETATSLDDVLRTMLNRFALDPNHAEPDCDLDLLMAKLFTDAGAPMESKVHLLSDTIQGVTATVRGVQYEQSWLCIICTMKTLQKRHVCISRLVRPQNWGENSCEVRFVILVLAPPKMKSTKTAMEVARTFATMFSDITFRQKLLKTRTEEEFKEALVHQRQLLTMMMPRAAGHSMSSLHTHRHPQPPKCKDFFPFGKGIWMDIMRRFPVYPMDFTDGIIGKSKSVGKYVTTTLFLYFACLLPTIAFGSLNDENTNGAIDVQKTIAGQSIGGLLYALFSGQPLVILLTTAPLAIYTQVIRVICDDYNLDFNAFYAWTGLWNSFFLALYAFLNLSLLMNLFKRSTEEIIALFISITFVLDAVKGMVKIFGKYYYGHHYHTKRTSSLVSLLGIGRSPNSSLHTALNASLLASPVEMATTSSPGSTHSGQATAVLSLLIMLGTLWLGYTLYQFKKSPYLHPCVRETLSDCALPIAVLSFSLIGSYGFQEIEMSKFRYNPSESLFEVAQIHSLSFKAIGSAMGLGFLLSLLFFIEQNLVAALVNAPENRLVKGTAYHWDLLLLAIINTGLSLFGLPWIHAAYPHSPLHVRALALVEERVENGHIYETIVDVKETRLTALGASVLVGLSLLLLPFPLQWIPKPVLYGLFLYIALTSLDGNQLFSRVALLLKEQTSYPPTHYIRRVPQRKIHYFTGLQILQLLLLCAFGMSSLPYMKMVFPLIMIAMIPIRYNLLPRIIEAKYLDVMDAEHRP
Question: Which binding [1] does the source give for B1 here?
Answer: binds

Question: And the binding [2]?
Answer: binds
